Measurements reported in paper PMC4398349.
Results are given in words; binding and its absence hold for the method and conditions named. Binding seen in cells or lysates may run through a third protein. A result given as binding can be weak or reduced; the word gives no strength. Tags and fused reporters may be left off the sequences shown.

B1: Sep7-GFP (C. albicans septin Sep7/Shs1 tagged at its chromosomal locus) (protein, UniProt Q59VX8 1-670)
chain: MSRFDYRNTSKNTSVVDPDHSSPIINYRKDAKKGIKFTFMVVGESGTGKTTFINSLLNKKVLNHRYEKLSPTVGDTKTLMFTSAKSVALPNTSILTKNEFNPRTINEEPGIALTETHIEIIDDDNQKLLLNIIDTPGFGENLNNELCFIEIENYLKQQFDLVLAEETRIKRNPRFVDTRVHVMLYFITPTGHGLREIDIQCMKRLSKYVNIIPVIGKADSFTLNELQHFKQQIRIDIQKFNVPTFQFDNSLNDYDEDEDYDLIQECKFLTNLQPFAVVTSEDVFEVRESTTSTKGNNDKPKIIRARKYPWGLVDINDTRYSDFPILKSVLLGSHLQDLKDLTHDFLYETYRTERLTKVTGNGQAFDDEENEDAEFHDTVEHQLNDSNRGVGGDDNNNNNNNNNNASTIPSMSNLAQLTTSTNEHDASHIDNNSITSTSSSIKKSTSMLIDDHPSSSPKLKNISSFTSSTSTVSLEGGEKEGGHHDRGANSTSTNNNNNNNAFKRLSIGPQRNQLRQISETVPYVLRHERILERQQKLEEMEQASARELANRAALLEKKAAQLKAKEKALRQLELNRQKQEESATSSLHRKDSDISGSVQSGGVDDGKSESTNNNNNNRNGYGYGHGHGHGQSHEYDNSEYHHDDSTPNYETSRLQKDETLTDLHSIVSNH
B2: Cdc11 (C. albicans septin, endogenous) (protein, UniProt G1UB61 1-402)
chain: MNYSTENVSSAALRKRKTLKKSINFSIMIIGESGSGRSTLINTLCGGNSIVPTSSTATQDPFTKKLTLRHENVELEDNEGHKISLNIIDTPNFANSINCDDDFKIIVDFIRHQFDEVLLEESRVKRNPRFKDGRIHVLIYMINPTGHGLSDIDVKFLQHVNNLVNIIPIISKADSLTPKELKLNKELILEDLNNYGINFYKFNEYDYEQDYIDEEIIEYNKYLNSLIPFAIIGANEYRSNPNGSEDEDDILKLRILNKDFKPIDIDNAEINDFTILKNVLLVTHLNEFKDITHDSIYENYRTEALSGKQFQYVNKDSAKQEISESDYLMKEEQIKLEEERLRKFEERVHQDLINKRKELLERENELKEIEKRLLAEGLKFDENGDVVKVHEEESSENEVKVI

Target: Cdc10-mCherry (C. albicans septin Cdc10 tagged at its chromosomal locus) (Candida albicans)
Test: co-IP; RFP-Trap on Cdc10-mCherry from 1 mg of yeast or hyphal extract of ACE2, ace2Δ/Δ, ace2L/ace2Δ and ace2S/ace2Δ strains; lysis buffer 50 mM Tris-HCl pH 7.8, 250 mM potassium acetate, 2 mM MgCl2, 0.5 mM EGTA, 0.8% Triton X-100; washes with 500 mM and 1 M potassium acetate; blots with anti-RFP, anti-GFP, anti-Cdc11

| Binder | binding |
| --- | --- |
| B1 | binds |
| B2 | binds |
